Patent US20160031955A1 (INSERM INSTITUT NATIONAL DE LA SANT ET DE LA RECHERCHE M …, published 2016)
No constants are given. Whether binding was seen depends on the method and setting. Binding seen in cells or lysates may run through a third protein. Binding can be weak; no strength is given. Where a sequence is shown, tags or fusion partners need not be part of it.

By UniProt entry, the sequences of proteins in these tests, tags left out. Where a name states a change or a piece, a line headed by the entry shows the natural chain unless it says otherwise.
UniProt O95831: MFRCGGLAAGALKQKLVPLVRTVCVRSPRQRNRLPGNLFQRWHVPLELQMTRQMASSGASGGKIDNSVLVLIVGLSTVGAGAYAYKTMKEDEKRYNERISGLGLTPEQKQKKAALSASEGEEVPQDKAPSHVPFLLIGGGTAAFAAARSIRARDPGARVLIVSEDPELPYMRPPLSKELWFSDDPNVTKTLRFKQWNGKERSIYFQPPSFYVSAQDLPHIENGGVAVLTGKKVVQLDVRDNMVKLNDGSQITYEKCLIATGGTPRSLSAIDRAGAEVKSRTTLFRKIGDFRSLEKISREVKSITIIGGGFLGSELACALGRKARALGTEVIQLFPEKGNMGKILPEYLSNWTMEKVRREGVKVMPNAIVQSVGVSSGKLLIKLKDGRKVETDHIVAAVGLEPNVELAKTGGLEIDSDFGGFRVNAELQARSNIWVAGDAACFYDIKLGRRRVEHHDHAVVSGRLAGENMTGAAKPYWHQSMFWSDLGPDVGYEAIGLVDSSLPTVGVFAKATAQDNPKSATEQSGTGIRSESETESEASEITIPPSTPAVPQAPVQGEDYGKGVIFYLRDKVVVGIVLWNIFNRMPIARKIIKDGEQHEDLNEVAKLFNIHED

B1: GST-tagged point mutant of MIA40 C4S (protein, not shown: a dimerising Fc or GST; small tags and cut ends)
chain: MSYSRQEGKDRIIFVTKEDHETPSSAELVADDPNDPYEEHGLILPNGNINWNCPCLGGMASGPCGEQFKSAFSCFHYSTEEIKGSDCVDQFRAMQECMQKYPDLYPQEDEDEEEEREKKPAEQAEETAPIEATATKEEEGSS
B2: GST-tagged point mutant of MIA40 C97S (protein, not shown: a dimerising Fc or GST; small tags and cut ends)
chain: MSYCRQEGKDRIIFVTKEDHETPSSAELVADDPNDPYEEHGLILPNGNINWNCPCLGGMASGPCGEQFKSAFSCFHYSTEEIKGSDCVDQFRAMQESMQKYPDLYPQEDEDEEEEREKKPAEQAEETAPIEATATKEEEGSS
B3: GST-tagged point mutant of MIA40 C74S (protein, not shown: a dimerising Fc or GST; small tags and cut ends)
chain: MSYCRQEGKDRIIFVTKEDHETPSSAELVADDPNDPYEEHGLILPNGNINWNCPCLGGMASGPCGEQFKSAFSSFHYSTEEIKGSDCVDQFRAMQECMQKYPDLYPQEDEDEEEEREKKPAEQAEETAPIEATATKEEEGSS
B4: GST-tagged point mutant of MIA40 C87S (protein, not shown: a dimerising Fc or GST; small tags and cut ends)
chain: MSYCRQEGKDRIIFVTKEDHETPSSAELVADDPNDPYEEHGLILPNGNINWNCPCLGGMASGPCGEQFKSAFSCFHYSTEEIKGSDSVDQFRAMQECMQKYPDLYPQEDEDEEEEREKKPAEQAEETAPIEATATKEEEGSS
B5: GST-tagged point mutant of MIA40 C53S+C55S (protein, not shown: a dimerising Fc or GST; small tags and cut ends)
chain: MSYCRQEGKDRIIFVTKEDHETPSSAELVADDPNDPYEEHGLILPNGNINWNSPSLGGMASGPCGEQFKSAFSCFHYSTEEIKGSDCVDQFRAMQECMQKYPDLYPQEDEDEEEEREKKPAEQAEETAPIEATATKEEEGSS
B6: GST-tagged full length MIA40 (wt) (protein, not shown: a dimerising Fc or GST)
chain: MSYCRQEGKDRIIFVTKEDHETPSSAELVADDPNDPYEEHGLILPNGNINWNCPCLGGMASGPCGEQFKSAFSCFHYSTEEIKGSDCVDQFRAMQECMQKYPDLYPQEDEDEEEEREKKPAEQAEETAPIEATATKEEEGSS

target: recombinant AIF (103-613) (human) (UniProt O95831); assay: GST pull-down of recombinant AIF

binding, binds:
B1
B2
B3
B4
B5

target: recombinant AIF (103-613) (human) (UniProt O95831); assay: GST pull-down

binding, binds:
B6
